Experimental findings from PMC6004055 are described below.

These are yes or no findings as the source states them, for the method shown. In cells and extracts the contact can be indirect. A result given as binding can be weak or reduced; the word gives no strength.

In this experiment the target is spectrin α (mouse (endogenous in red blood cells)). As to the kind of experiment: co-IP; hemoglobin-depleted mouse RBC lysate incubated 1 h at 37°C with anti-spectrin or anti-protein 4.1 antibody, then 1 h at 37°C with protein A/G magnetic beads; 20 mM Tris pH 7.5, 150 mM NaCl, 5 mM MgCl2, 1 mM DTT, 1% Triton X-100; IGG as negative control; Western blot against SART3. On the technique in general: In western blotting, separated proteins are transferred to a membrane and probed.

B1: squamous cell carcinoma antigen recognized by T-cells 3 (SART3) (protein, UniProt Q9JLI8 1-962)
chain: MATTAASSASEPEVEPQAGPEAEGEEDEAKPAGVQRKVLSGAVAAEAAEAKGPGWDLQREGASGSDGDEEDAMASSAESSAGEDEWEYDEEEEKNQLEIERLEEQLSINGYDYNCHVELIRLLRLEGELSRVRAARQKMSELFPLTEELWLEWLHDEISMAMDGLDREHVYELFERAVKDYICPNIWLEYGQYSVGGIGQKGGLEKVRSVFERALSSVGLHMTKGLAIWEAYREFESAIVEAARLEKVHSLFRRQLAIPLYEMEATFAEYEEWSEEPMPESVLQSYQKALGQLEKYKPYEEALLQAEAPRLAEYQAYIDFEMKIGDPARIQLIFERALVENCLVPDLWIRYSQYLDRQLKVKDLVLSVHSRAVRNCPWTVALWSRYLLAMERHGLDHQTISATFENALSAGFIQATDYVEIWQVYLDYLRRRVDFRQDSSKELEELRSMFTRALEYLQQEVEERFSESGDPSCLIMQSWARVEARLCNNMQKARELWDSIMTRGNAKYANMWLEYYNLERAHGDTQHCRKALHRAVQCTSDYPEHVCEVLLTMERTEGTLEDWDLAIQKTETRLARVNEQRMKAAEKEAALVQQEEEKAEQRKKVRAEKKALKKKKKTRGADKRREDEDEENEWGEEEEEQPSKRRRTENSLASGEASAMKEETELSGKCLTIDVGPPSKQKEKAASLKRDMPKVAHDSSKDSVTVFVSNLPYSIEEPEVKLRPLFEVCGEVVQIRPIFSNRGDFRGYCYVEFGEEKSAQQALELDRKIVEGRPMFVSPCVDKSKNPDFKVFRYSTTLEKHKLFISGLPFSCTKEELEDICKAHGTVKDLRLVTNRAGKPKGLAYVEYENESQASQAVMKMDGMTIRENVIKVAISNPPQRKVPEKPEVRTAPGAPMLPRQMYGARGKGRTQLSLLPRALQRQGAAPQAENGPAPGPAVAPSVATEAPKMSNADFAKLLLRK
As for B1, the binding entry was “binds”.
